≈ marks a conversion by molar mass, not a printed value.
What was measured:
[1] = Solubility of the compound in phosphate buffer at pH 7.4 at 25 degC after 24 hrs by ultraperformance LC/MS/MS method
[2] = physchem; conditions: octanol/water, pH 7.4

SMILES: COC(=O)NCc1ccc(Cl)cc1CNC(=O)CC1=C(C)CCN(NCc2cccc(C(=O)OC)c2)C1=O
- solubility at 24 h [1]: 160 µM (≈ 86.9 µg/mL)
- logD at 3 h [2]: 2.9

From ChEMBL document CHEMBL4425130, “Macrocyclic Prodrugs of a Selective Nonpeptidic Direct Thrombin Inhibitor Display High Permeability, Efficient Bioconversion but Low Bioavailability” (J Med Chem, 2016)
